Two compounds from patent US12258368B2, “Disulfide-linked reversible terminators” (CENTRILLION TECHNOLOGY HOLDINGS CORPORATION, priority 2018, dated 2025) can be followed below.

The data set is described as follows: Cleavage studies: removal of 3′ blocking group and label from the incorporated terminator.

For `CC(=O)SCO[C@H]1C[C@H](n2cc(C#CCNC(=O)OC(C)(C)C)c(=O)[nH]c2=O)O[C@@H]1COP(=O)(O)OP(=O)(O)OP(=O)(O)O` [compound 60, S-((((2R,3S,5R)-5-(5-(3-((tert-butoxycarbonyl)amino)prop-1-yn-1-yl)-2,4-dioxo-3,4-dihydropyrimidin-1 (2H)-yl)-2-(((hydroxy((hydroxy(phosphonooxy)phosphoryl)oxy)phosphoryl)oxy)methyl)tetrahydrofuran-3-yl)oxy)methyl) ethanethioate], where the note is “FIG. 2 lane 5, reagent not given”, the “cleavage of the label and the blocking group” value is “cleavage of the label and the blocking group”. For the compound `CSSCO[C@@H]1C[C@H](n2cc(C#CCNC(=O)OCCSSCCNC(=O)c3ccc(C4=c5cc6c(cc5Oc5cc7c(cc54)C(CS(=O)(=O)O)=CC(C)(C)N7)=NC(C)(C)C=C6CS(=O)(=O)O)cc3C(=O)O)c(=O)[nH]c2=O)O[C@@H]1COP(=O)(O)OP(=O)(O)OP(=O)(O)O` [compound 75, (6-(3-carboxy-4-((2-((2-(((3-(1-((2R,4R,5R)-5-(((hydroxy((hydroxy(phosphonooxy)phosphoryl)oxy)phosphoryl)oxy)methyl)-4-((methyldisulfaneyl)methoxy)tetrahydrofuran-2-yl)-2,4-dioxo-1,2,3,4-tetrahydropyrimidin-5-yl)prop-2-yn-1-yl)carbamoyl)oxy)ethyl)disulfaneyl)ethyl)carbamoyl)phenyl)-2,2,10,10-tetramethyl-8-(sulfomethyl)-10,11-dihydro-2H-pyrano[3,2-g:5,6-g′]diquinolin-1-ium-4-yl)methanesulfonate], the “cleavage of the 3′ blocking group along with the labeled linker tag” value (after the treatment with DTT, FIG. 4 lane 5) is “simultaneous cleavage of the 3′ blocking group along with the labeled linker tag can be observed”.
